Reference: paper doi:10.1101/2021.11.19.469163
Where two headings read alike, the source gives them in different places. No constants are given. Whether binding was seen depends on the method and setting. Binding seen in cells or lysates may run through a third protein.

Sequences of proteins named here, by UniProt entry; tags and fusion partners are left off.
UniProt A8ISN6, whole entry: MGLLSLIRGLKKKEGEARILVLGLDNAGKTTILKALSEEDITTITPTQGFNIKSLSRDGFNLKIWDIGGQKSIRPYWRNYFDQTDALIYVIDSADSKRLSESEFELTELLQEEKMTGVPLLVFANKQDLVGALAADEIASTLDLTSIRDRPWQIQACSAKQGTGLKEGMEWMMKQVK
UniProt A8HYP5, whole entry: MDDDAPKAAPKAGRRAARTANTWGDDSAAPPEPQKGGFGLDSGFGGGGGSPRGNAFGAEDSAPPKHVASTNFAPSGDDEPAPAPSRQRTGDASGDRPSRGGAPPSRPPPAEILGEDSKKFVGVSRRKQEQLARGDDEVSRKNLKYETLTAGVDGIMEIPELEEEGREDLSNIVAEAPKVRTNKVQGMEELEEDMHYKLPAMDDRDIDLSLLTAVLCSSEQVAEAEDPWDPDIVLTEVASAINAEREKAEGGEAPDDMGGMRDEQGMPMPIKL

Columns and labels:
[1] = molecular target: ARL3::HA::YFP (C. reinhardtii) (UniProt A8ISN6); experiment: co-IP
[2] = molecular target: ARL3::HA::YFP (C. reinhardtii) (UniProt A8ISN6); experiment: co-IP; remark: listed apart in the source

Row | Molecule | binding [1] | binding [2]
1 | IFT43 (from UniProt A8HYP5 1-272) | no binding | no binding
2 | IFT57 (protein, UniProt Q2XQY7 1-469) MSSKRGGRSSLAKAPEEAVNGEAFAPEASPPPPGDDGDAGGEDGGAPAPPPPPATKGGPVAVGRSLEIQTTPDVCMEMLADKLKLLNYEADFCRKKKPYRKPLSRLYFAVPLANSSEQFFYFTSLATWLLGLAGVELPAPKEFDDPNLTCQNILGAVKKLGFAPPSYHPTKLTVGNGKEVVGVLDGLVDFVLERRHHKYSRPAYGNDGQPEEGVQLDDEAEAAAMEGADELAMPAQNQADDDEEEEGVYVDPGRGDAAGPGTGASAAMDAEKAVLVSKVDPTLWKIELERVAPKLRITIAADSKDWRSHLDEAHQHKEVISKAWPDSKTSLERLRADLNGTLEKLQTREKFLNEQFESLMQQYRAARTTFTDVQETYNRKTEAVADRNQEMHRIGETLEEVKAMMDEKGSNIADATPVARIKTAIKQLNKELHDMEVRIGVVSHTLLQLSLRNKRLLQAQAALSDEEED | no binding | no binding
3 | IFT139 (protein, UniProt A9XPA6 1-1355) MADRVLALVHYYAREGYFRHVQTVCNEVLKKRPGDGVLTFWRAYGLLMEGNTADAMRDLSSIQGNSDLELAVAAAQLLGHESAKVPDHDAIIDLQAKLEIEERTASDQPCLHLASFYLYTKSKERARGLVERVLRNQPDMVPAQVLLGWIIISQQQDDEYDMLFDESELDDALSHFEQAVEHDHNDLEALLGKAKIMELKKQLGPCLDVLTEINVRFGWFVPALVEKTRMLMMLGDWEQVTETLQRVLAADQQNIMAQAWNCMISLTREGNNKQAAKQLQDLFSSMNRQEPKNAELFFRVARPFGRLACSDPTLLGITYLMADRAAQLRPEMAAYVVEAAAQKLMMDETTNATERFTQALQLDELNLEANAGALEAQIMAGELEEAAGQIMFLEDMFTNAAAAGGGKRKGRGTGDMDDDPDMADPSLGTSSDNPTLLYLKGLLAWKQGMPSEGLGLLERSIAALFSAAADFHGPSLELYAALNPARITAVVRLLLQSIGGEPRAPTEAPSPLISKVTRALDLLNKQAPALQESALLHARALYLNGNLDGALRKAGEILRMNPEESSAHLLICSVYVAQDKPELAVSALDQAVSSNFAIRETPLYHVVQAKVLVANNKLDDAKRVLESAMNLPGVRTALTVQQRARLGRKVVEPTLHERATVYLLLADVLARQSKIPDAPEAKKYIQDAIREFEGTSEEVRVTVADCELAIARGDVEGALKKLRRIPKESPHYVKARMAMADIYLRHRKDKAAYIKCYMDLVDHTPDYDSYCMLGEAFMQIQEPEKAVRAFESALEFSPKDVDLITRCARALVTSHDYQRAIDYYTKAIANARGGAQHALQLELGNLLVRLRQYPAATAAINKALERNRDGLPATENLQLDVEAWSMLAKVHKGKLEMEGYSQAQSRALELQKQLLLKLRGELPEAVALQRERTAAICFDLAEQSKRARQFDRAMELYMEALRHHDTHVPSMLAVAKLHLANGDTDACQAQCVTLLKHDPDNEEASIMLAELMFHKEHYDTAIYHFQQLLERSPNHYGALAQLILLLRRAGRLEDVPRYFALAEAGSPKAVMDPGYHYCKGIYNRYINNPREALKELNLARKDTRWGSQAILHMVEIYLNPDNDAVWEEKENADTPESRQAVATARSLLKQVRGADTTTQRYRVLESYAIMAGKDKNEIEASLNVLLDLANQDPNNVPVLLAMATGFMMLKQTPKARNQLKRVQKIQYKPDEAEEFERSWLLLADIHIQGGKYDLAQDLCQKCLKYNKSCAKAWEIMGQIMEREQAYKDAADHYENAWKHENQASAQVGFKLAFNYLKARRYVEAVDVCHKVIKAFPDYPKIRKEILEKARMGLKP | no binding | no binding
